In PubChem BioAssay AID1508600 (Functional Genomics Laboratory (NCATS/FGL), 2020):
Screen size: about 53,000 sequences; about 3,700 (7%) were called active.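 How the source made its calls: active means gene knockdowns whose robust z-score for IL-1 alpha signal is at least 2 or at most -2, so actives lie on both sides; inactive means the rest.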 The list shows a part of the results.

assay: Components of the Cytosolic LPS Sensing Pathway: Gene Identification via Genome-wide siRNA Screen; details: RAW264.7 macrophages, IL-1a HTRF, actives lie on both sides, screened at 100 nM (by protocol), cells primed 5 h with Pam3CSK4 first;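 further: robust z of the log signal after scaling to non-targeting control siRNA wells of the plate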
Method in brief: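 Three distinct siRNAs per gene were tested singly at 100 nM in RAW264.7 macrophages. Following Pam3CSK4 priming and 24 hour LipidA transfection, IL-1a secretion was read by HTRF.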

| Sequence | z-score |
| --- | --- |
| GCUACCUACUCAACAUUGCTT against Trim32 | inactive: 0.524 |
| GGAGAGAAUAUCACAAUUGTT against Tas2r102 | inactive: 0.00892 |
| GGUAUUUUGGUGGACGGGUTT against Rbm17 | inactive: 0.148 |
| CGACCAGCUUCUAGUGCUUTT against Pcdha8 | inactive: -0.431 |
| GGAACAGAUGGGUGUGAAATT against Wnt2b | inactive: -0.0195 |
| GCUGUCAUGGGAAAAAUUGTT against Olfr729 | inactive: -0.541 |
| GGAAGCCAAAGGUCUCAACTT against Crct1 | inactive: 1.05 |
| GGUUGUACGAUUAUAAAGGTT against Arih2 | inactive: 0.36 |
| GGUGUACGAUGCAGUACCCTT against Slamf8 | inactive: -0.144 |
| GGUAAUGGCUCACUUAAUATT against Malt1 | inactive: -0.427 |
| GGAGCAAGAGUCUAAAUGATT against Rubcn | active: -2.23 |
| GCUCCAGAGUUCGUCUUUGTT against Zfp64 | inactive: -0.0115 |
| AGUACCCAUAUCAACGAAGTT against Olfr926 | inactive: -0.209 |
| GGCUUUUUGAGGUAUUUCATT against Cnpy1 | inactive: -0.00398 |
| GGCCCUCAUCAUAAAUGCUTT against Dctn6 | inactive: -0.525 |
| CGUAGCAACUUGUUUCUCUTT against Bend3 | inactive: -1.72 |
| CCAGGAAUUACUACGUCCGTT against Cyba | inactive: -1.51 |
| GGUCAGAGGUCGACCUAUUTT against Oas1h | active: -2.18 |
| CCUUCUUUGUUCCAUAAGATT against Hapln2 | inactive: -0.858 |
| GGGAACAUUUAUCCCUGUGTT against Olfr480 | inactive: -0.512 |
| CCUUUGAUUGACAGAAAGATT against Etv5 | inactive: 1.14 |
| GGAGACAGGGUUUUUCCUGTT against Tap1 | inactive: -0.165 |
| GGACUACGUAUUUUCCCUGTT against Cyc1 | inactive: -0.39 |
| GGUUUCUUUUCCUCUGGGCTT against Gata1 | inactive: -0.204 |
| GGAGUCUCCAAUGAAAUGUTT against Kcnma1 | inactive: -0.464 |
| GGUCUUCGAAGCUACGAUATT against Edem1 | inactive: 0.0301 |
| GGGCAAUAAGAUGUACGUUTT against Eomes | active: 3.24 |
| GGCUUCCAGAAUUCAAAUUTT against Rer1 | inactive: 1.37 |
| GGCCAAAGAAGAAUCUCCUTT against Aebp2 | inactive: -0.124 |
| GGCAAUACGUGAAGAAAAATT against Baz1a | inactive: -0.493 |

Some values from the results shown:
z-score with GGAGACAGGGUUUUUCCUGTT against Tap1 reads inactive: -0.165
z-score with GGUCAGAGGUCGACCUAUUTT against Oas1h reads active: -2.18
